Data taken from publication doi:10.1101/2023.09.04.556101.
Read-outs that look alike come from different tables or passages of the source. No constants are given. Whether binding was seen depends on the method and setting. Binding seen in cells or lysates may run through a third protein. Some binding calls cover weakened binding; strength is not graded here.

By UniProt entry, the sequences of proteins in these tests, tags left out.
UniProt Q92826: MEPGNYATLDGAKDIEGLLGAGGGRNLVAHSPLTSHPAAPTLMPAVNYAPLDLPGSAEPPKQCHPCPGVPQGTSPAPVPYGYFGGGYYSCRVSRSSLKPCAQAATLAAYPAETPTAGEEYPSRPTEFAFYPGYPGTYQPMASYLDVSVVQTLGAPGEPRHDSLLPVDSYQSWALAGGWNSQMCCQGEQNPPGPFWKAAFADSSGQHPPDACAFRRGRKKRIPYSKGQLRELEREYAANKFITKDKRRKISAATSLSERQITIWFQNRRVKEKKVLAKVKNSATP
UniProt Q92925: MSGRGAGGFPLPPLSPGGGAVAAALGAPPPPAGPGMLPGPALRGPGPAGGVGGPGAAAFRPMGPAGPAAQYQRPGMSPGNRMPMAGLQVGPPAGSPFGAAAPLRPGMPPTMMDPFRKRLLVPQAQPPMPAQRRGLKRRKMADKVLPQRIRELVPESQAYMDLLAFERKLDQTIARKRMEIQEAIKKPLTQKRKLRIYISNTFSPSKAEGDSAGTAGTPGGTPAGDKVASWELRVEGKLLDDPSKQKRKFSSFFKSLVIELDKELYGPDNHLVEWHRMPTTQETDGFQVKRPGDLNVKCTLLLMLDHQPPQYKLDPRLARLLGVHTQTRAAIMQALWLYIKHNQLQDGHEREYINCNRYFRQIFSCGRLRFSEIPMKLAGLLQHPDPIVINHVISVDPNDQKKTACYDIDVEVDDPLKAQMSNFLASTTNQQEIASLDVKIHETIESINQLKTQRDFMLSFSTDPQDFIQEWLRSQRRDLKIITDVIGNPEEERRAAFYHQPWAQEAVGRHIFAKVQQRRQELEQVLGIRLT

Assays:
Flag-HOXB13 = Flag-HOXB13 (UniProt Q92826); experiment: co-IP
FL-HOXB13 = FL-HOXB13 (UniProt Q92826); experiment: proximity ligation
[1] = molecular target: HOXB13 (human (endogenous in LNCaP, 22Rv1, PC3 and human prostate tissue)) (UniProt Q92826); experiment: proximity ligation
[2] = molecular target: HOXB13 (human (endogenous in LNCaP, 22Rv1, PC3 and human prostate tissue)) (UniProt Q92826); experiment: proximity ligation; remark: listed apart in the source

Row | Substance | binding (Flag-HOXB13) | binding (FL-HOXB13) | binding [1] | binding [2]
1 | Myc-His-SMARCD2 (from UniProt Q92925 1-531) | binds |  |  | 
2 | SMARCD2 (from UniProt Q92925 1-531) |  | binds | binds | binds
